These are yes or no findings as the source states them, for the method shown. Binding seen in cells or lysates may run through a third protein. Here binding means that the protein was enriched with, or labelled near, the bait; the list need not be complete.
Experiments:
Experiment in all cases: affinity purification with mass spectrometry
[1] = biological target: Myc-tagged TAC60 (T. brucei) (UniProt Q57WR0)
[2] = biological target: in situ HA-tagged TAC42 (T. brucei) (UniProt Q57YB6)
[3] = biological target: in situ HA-tagged TAC40 (T. brucei) (UniProt Q581S0)

Row | Substance | binding [1] | binding [2] | binding [3]
1 | TAC40 (from UniProt Q581S0) | binds | binds | 
2 | TAC42 (from UniProt Q57YB6) | binds |  | 
3 | TAC60 (from UniProt Q57WR0) |  | binds | binds

Reference: publication doi:10.1101/190751
